PubChem BioAssay AID602196, INSERM, 2012
This is an unselected part of about 23,000 deposited reagents. In the full data, 455 (2%) were called active. 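Active includes both protection and sensitisation; some change values fall well beyond the stated -50 to +50 range.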 No sequences are given here. The record does not give: the amount of reagent.

Aim: 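Genes whose knock-down alters cisplatin killing of lung cancer cells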
Cells: human A549 lung cancer cells
Knock-down reagent: siRNA pair against human genes
Duration: 48 h transfection before cisplatin; time from cisplatin to read-out not stated
Treatment: cisplatin at a dose killing half of control-siRNA cells; exact dose and duration not given
Measured: 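Shift in cisplatin death relative to control siRNA, from -50 (all cells die) to +50 (no cells die); siRNAs harmful on their own scored 0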
Scale: two-siRNA summed score (-2 to +2): higher = both siRNAs protect from cisplatin killing; -2 means both sensitise; mean protection from cisplatin (shift in death) and protection from cisplatin (shift in death), siRNA C and protection from cisplatin (shift in death), siRNA D: higher = protection from cisplatin killing
Rule for the call: 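Each siRNA scores 0 if harmful alone by LDH or WST-1, otherwise +1 if it reduces and -1 if it increases cisplatin killing; a gene is active when both siRNAs agree (sum +2 or -2)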
Meaning of the calls: active = both siRNAs shift cisplatin killing the same way; inactive = no consistent shift, or siRNA harmful alone

| target | two-siRNA summed score (-2 to +2) | mean protection from cisplatin (shift in death) (%) | protection from cisplatin (shift in death), siRNA C (%) | protection from cisplatin (shift in death), siRNA D (%) | outcome |
| --- | --- | --- | --- | --- | --- |
| SLC25A21 | 0 | 7.5 | 8.1 | 6.9 | inactive |
| LOC283389 | 1 | 24.7 | 38.7 | 10.7 | inactive |
| HEMK2 | 0 | -3.6 | -6.9 | -0.2 | inactive |
| TPTEP2 (TPTE pseudogene 2) | 1 | 21.4 | -2.8 | 45.5 | inactive |
| DUSP13B (dual specificity phosphatase 13B) | -1 | -5.4 | 2.1 | -12.8 | inactive |
| IFITM3P7 (IFITM3 pseudogene 7) | 1 | 7.1 | 10.3 | 3.9 | inactive |
| RPS11 (ribosomal protein S11) | 0 | 29 | 22.3 | 35.6 | inactive |
| LOC401182 | 0 | -2.5 | -10.4 | 5.4 | inactive |
| NPY6RP (neuropeptide Y receptor Y6, pseudogene) | 0 | 3.4 | -2.9 | 9.8 | inactive |
| LOC440009 | 0 | -1.3 | -3.3 | 0.7 | inactive |
| ATP6V1G3 (ATPase H+ transporting V1 subunit G3) | 0 | 10.6 | 16.1 | 5.1 | inactive |
| PRAP1 (proline rich acidic protein 1) | 0 | 10.3 | 9.2 | 11.4 | inactive |
| FOLH1B (folate hydrolase 1B (pseudogene)) | 1 | 10.3 | 3.8 | 16.8 | inactive |
| KIF5C (kinesin family member 5C) | 0 | 15.1 | 23.8 | 6.5 | inactive |
| LOC343153 | 0 | 3.6 | -5.7 | 13 | inactive |
| RTL10 (retrotransposon Gag like 10) | 0 | -1.8 | -4.9 | 1.3 | inactive |
| LRRC41 (leucine rich repeat containing 41) | 1 | 8.7 | 14.3 | 3.1 | inactive |
| TMEM117 (transmembrane protein 117) | 0 | 2.7 | 3.7 | 1.7 | inactive |
| PGGHG (protein-glucosylgalactosylhydroxylysine glucosidase) | 0 | -6.7 | -9.7 | -3.7 | inactive |
| LRRC59 (leucine rich repeat containing 59) | 0 | 11.4 | 11.9 | 11 | inactive |
| TAFA1 (TAFA chemokine like family member 1) | 0 | 8.3 | 16.3 | 0.2 | inactive |
| KANSL1 (KAT8 regulatory NSL complex subunit 1) | 0 | -5 | -17 | 7 | inactive |
| LOC401215 | 0 | 2.5 | -2 | 6.9 | inactive |

The list goes on (3 carried over from the part before).
| target | two-siRNA summed score (-2 to +2) | mean protection from cisplatin (shift in death) (%) | protection from cisplatin (shift in death), siRNA C (%) | protection from cisplatin (shift in death), siRNA D (%) | outcome |
| --- | --- | --- | --- | --- | --- |
| TAFA1 (TAFA chemokine like family member 1) | 0 | 8.3 | 16.3 | 0.2 | inactive |
| KANSL1 (KAT8 regulatory NSL complex subunit 1) | 0 | -5 | -17 | 7 | inactive |
| LOC401215 | 0 | 2.5 | -2 | 6.9 | inactive |
| NEGR1 (neuronal growth regulator 1) | 1 | 11.1 | 4.6 | 17.7 | inactive |
| GAL3ST2 (galactose-3-O-sulfotransferase 2) | 0 | -3 | -2.9 | -3.1 | inactive |
| GGA1 | -1 | -27.5 | -38.9 | -16.1 | inactive |
| RAP2B (RAP2B, member of RAS oncogene family) | 0 | 3.4 | -3.7 | 10.5 | inactive |
| TAAR3P (trace amine associated receptor 3, pseudogene) | 0 | -0.1 | 10.3 | -10.6 | inactive |
| STXBP4 (syntaxin binding protein 4) | 0 | 14.7 | 19.5 | 10 | inactive |
| ITGAV (integrin subunit alpha V) | -1 | -0.7 | 21.1 | -22.6 | inactive |
| LINC00667 (long independently transcribed non-coding RNA 667) | 0 | 17.1 | 25.7 | 8.5 | inactive |
| FREM3 (FRAS1 related extracellular matrix 3) | 0 | 10.7 | 9.9 | 11.5 | inactive |
| VPS39 (VPS39 subunit of HOPS complex) | 0 | -9.5 | 16.2 | -35.1 | inactive |
| AFF2 (ALF transcription elongation factor 2) | 0 | -5.3 | -6.3 | -4.3 | inactive |
| JAK1 (Janus kinase 1) | 0 | 10 | 11.3 | 8.7 | inactive |
| PEX11A (peroxisomal biogenesis factor 11 alpha) | 0 | -3 | 2.9 | -8.9 | inactive |
| C14orf132 (chromosome 14 open reading frame 132) | 0 | -3.6 | -8.1 | 0.8 | inactive |
| SOCS1 (suppressor of cytokine signaling 1) | 0 | -5.5 | -6.4 | -4.7 | inactive |
| GID4 (GID complex subunit 4 homolog) | 0 | 0.8 | -2.2 | 3.7 | inactive |
